No constants are given. Whether binding was seen depends on the method and setting. Some entries that bind do so weakly or less than the wild type.
Tests used:
[1] = molecular target: FcγRIIa (H167) (UniProt P12318); assay: SPR
[2] = molecular target: FcγRIIIa (V176) (UniProt P08637); assay: SPR
[3] = molecular target: FcγRIIIb (UniProt O75015); assay: SPR
[4] = molecular target: FcγRIIb (UniProt P31994); assay: SPR
[5] = molecular target: FcγRIIa (R167) (UniProt P12318); assay: SPR
[6] = molecular target: FcγRI (UniProt P12314); assay: SPR
[7] = molecular target: FcγRIIIa (F176) (UniProt P08637); assay: SPR
[8] = molecular target: human CD19 (human) (UniProt P15391); assay: flow cytometry bridging of pre-labelled Raji (CD19+) and Jurkat (CD3+) cells with 10 nM antibody
[9] = molecular target: human CD19 (human) (UniProt P15391); assay: flow cytometry on Ramos cells, PE anti-human IgG Fc detection
[10] = molecular target: human CD19 (human) (UniProt P15391); assay: flow cytometry on Ramos cells after incubation of the antibody in human serum at 37 C for 0, 1, 4, 7 and 14 days
[11] = molecular target: cynomolgus CD19 (cynomolgus monkey); assay: flow cytometry on cynomolgus CD19 expressing CHO-K1 cells, anti-human IgG Fc detection
[12] = molecular target: human CD19 (human) (UniProt P15391); assay: flow cytometry affinity test on Ramos cells, Bound/Free against bound IgG
[13] = molecular target: human CD19 (human) (UniProt P15391); assay: flow cytometry on Ramos cells after incubation in human serum at 37° C.

Amino acid sequences for entries named in this document (tags omitted). A change or cut given only in a name is not applied to a line headed by its entry. Chains listed by the source or under a name are the forms on record and can include a tag or linker. Residues count along the entry.
FcγRIIa (H167) (P12318, residues 36-218): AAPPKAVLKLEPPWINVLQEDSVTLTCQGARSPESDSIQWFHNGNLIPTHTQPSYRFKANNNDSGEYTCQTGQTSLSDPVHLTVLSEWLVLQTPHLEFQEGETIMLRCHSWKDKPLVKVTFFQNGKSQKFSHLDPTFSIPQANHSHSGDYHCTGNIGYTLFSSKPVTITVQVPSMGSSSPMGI
FcγRIIa (R167) (P12318, form named): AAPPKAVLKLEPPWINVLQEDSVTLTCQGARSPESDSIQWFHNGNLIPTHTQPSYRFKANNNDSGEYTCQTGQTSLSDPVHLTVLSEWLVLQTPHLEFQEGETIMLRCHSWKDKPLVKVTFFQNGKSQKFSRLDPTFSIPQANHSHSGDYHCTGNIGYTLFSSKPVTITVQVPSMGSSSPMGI
FcγRIIIa (F176) (P08637, residues 17-208): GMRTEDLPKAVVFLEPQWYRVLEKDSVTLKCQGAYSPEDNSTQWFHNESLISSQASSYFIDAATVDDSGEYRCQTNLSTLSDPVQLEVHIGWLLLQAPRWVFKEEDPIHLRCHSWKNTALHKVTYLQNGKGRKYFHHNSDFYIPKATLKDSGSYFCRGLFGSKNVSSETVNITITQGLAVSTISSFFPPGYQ
FcγRIIIa (V176) (P08637, form named): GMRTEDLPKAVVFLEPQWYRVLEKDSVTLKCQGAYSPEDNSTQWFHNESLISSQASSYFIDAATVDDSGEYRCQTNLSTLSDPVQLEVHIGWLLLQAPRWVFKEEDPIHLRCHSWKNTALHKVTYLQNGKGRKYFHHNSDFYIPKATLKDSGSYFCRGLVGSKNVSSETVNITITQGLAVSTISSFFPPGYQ
UniProt O75015, residues 17-200: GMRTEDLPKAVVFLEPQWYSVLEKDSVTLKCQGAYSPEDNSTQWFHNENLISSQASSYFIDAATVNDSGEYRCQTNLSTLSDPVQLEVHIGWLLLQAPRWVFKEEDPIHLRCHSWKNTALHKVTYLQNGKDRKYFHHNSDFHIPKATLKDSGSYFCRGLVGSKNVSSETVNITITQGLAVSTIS
UniProt P31994, residues 46-217: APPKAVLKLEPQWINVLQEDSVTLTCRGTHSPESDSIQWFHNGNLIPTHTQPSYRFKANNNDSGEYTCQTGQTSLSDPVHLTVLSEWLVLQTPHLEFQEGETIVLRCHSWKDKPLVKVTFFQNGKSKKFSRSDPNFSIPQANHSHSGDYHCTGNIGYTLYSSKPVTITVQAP
UniProt P12314, residues 16-288: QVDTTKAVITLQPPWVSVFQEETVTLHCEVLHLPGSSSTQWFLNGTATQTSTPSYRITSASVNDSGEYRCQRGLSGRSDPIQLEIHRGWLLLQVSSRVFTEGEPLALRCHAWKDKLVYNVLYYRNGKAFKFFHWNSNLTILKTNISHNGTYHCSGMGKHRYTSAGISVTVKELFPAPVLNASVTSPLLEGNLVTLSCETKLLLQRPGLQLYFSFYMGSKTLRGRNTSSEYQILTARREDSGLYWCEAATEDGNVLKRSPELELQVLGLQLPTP
UniProt P15391, residues 20-556: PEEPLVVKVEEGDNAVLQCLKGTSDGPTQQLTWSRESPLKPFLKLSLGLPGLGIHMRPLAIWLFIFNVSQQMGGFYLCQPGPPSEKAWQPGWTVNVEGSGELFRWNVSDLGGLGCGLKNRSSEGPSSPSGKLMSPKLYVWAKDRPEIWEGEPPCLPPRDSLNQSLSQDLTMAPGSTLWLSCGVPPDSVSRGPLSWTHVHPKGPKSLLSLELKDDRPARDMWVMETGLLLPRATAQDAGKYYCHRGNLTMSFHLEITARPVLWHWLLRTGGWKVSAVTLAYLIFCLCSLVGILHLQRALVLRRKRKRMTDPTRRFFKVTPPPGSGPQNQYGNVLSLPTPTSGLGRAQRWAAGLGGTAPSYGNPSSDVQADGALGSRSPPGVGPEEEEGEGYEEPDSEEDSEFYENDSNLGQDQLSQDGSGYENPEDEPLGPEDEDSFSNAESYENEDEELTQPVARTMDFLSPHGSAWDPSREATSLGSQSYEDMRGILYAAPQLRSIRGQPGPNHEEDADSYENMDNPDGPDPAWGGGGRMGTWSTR

- binding [1]: binds
- binding [2]: binds
- binding [3]: binds
- binding [4]: binds
- binding [5]: binds
- binding [6]: binds
- binding [7]: binds
- binding [8]: binds
- binding [9]: binds
- binding [10]: binds
- binding [11]: binds
- binding [12]: binds
- binding [13]: binds
B1: W3438-T3U4.E17-1.uIgG4.SP (bispecific antibody)
light 1: DIVMTQSPDSLAVSLGERATINCKSSQSLLNSRTRKNYLAWYQQKPGQPPKLLIYWASTRQSGVPDRFSGSGSGTDFTLTISSLQAEDVAVYYCTQSHTLRTFGGGTKVEIKPDIQNPDPAVYQLRDSKSSDKSVCLFTDFDSQTQVSQSKDSDVYITDKCVLDMRSMDFKSNSAVAWSQKSDFACANAFQNSIIPEDTFFPSPESS
heavy 1: QVQLVQSGAEVKKPGSSVKVSCKASGFAFTDYYIHWVRQAPGQGLEWMGWISPGNVNTKYNENFKGRVTITADKSTSTAYMELSSLRSEDTAVYYCARDGYSLYYFDYWGQGTLVTVLEDLKNVFPPEVAVFEPSEAEISHTQKATLVCLATGFYPDHVELSWWVNGKEVHSGVCTDPQPLKEQPALQDSRYALSSRLRVSATFWQNPRNHFRCQVQFYGLSENDEWTQDRAKPVTQIVSAEAWGRYGPPCPPCPAPEFLGGPSVFLFPPKPKDTLMISRTPEVTCVVVDVSQEDPEVQFNWYVDGVEVHNAKTKPREEQFNSTYRVVSVLTVLHQDWLNGKEYKCKVSNKGLPSSIEKTISKAKGQPREPQVYTLPPCQEEMTKNQVSLWCLVKGFYPSDIAVEWESNGQPENNYKTTPPVLDSDGSFFLYSRLTVDKSRWQEGNVFSCSVMHEALHNHYTQKSLSLSLGK
light 2: DIQLTQSPSFLSASVGDRVTITCSASSTVNYMHWYQQKPGKAPKLLIYSTSNLASGVPSRFSGSGSGTEFTLTISSLQPEDFATYYCHQWSSYPYTFGQGTKLEIKRTVAAPSVFIFPPSDEQLKSGTASVVCLLNNFYPREAKVQWKVDNALQSGNSQESVTEQDSKDSTYSLSSTLTLSKADYEKHKVYACEVTHQGLSSPVTKSFNRGEC
heavy 2: QMQLVQSGPEVKKPGTSVKVSCKASGYAFTSYNMYWVRQARGQRLEWIGYIDPYNGDTTYNQKFKGRVTITRDMSTSTAYMELSSLRSEDTAVYYCLTTAYAMDYWGQGTLVTVSSASTKGPSVFPLAPCSRSTSESTAALGCLVKDYFPEPVTVSWNSGALTSGVHTFPAVLQSSGLYSLSSVVTVPSSSLGTKTYTCNVDHKPSNTKVDKRVESKYGPPCPPCPAPEFLGGPSVFLFPPKPKDTLMISRTPEVTCVVVDVSQEDPEVQFNWYVDGVEVHNAKTKPREEQFNSTYRVVSVLTVLHQDWLNGKEYKCKVSNKGLPSSIEKTISKAKGQPREPQVCTLPPSQEEMTKNQVSLSCAVKGFYPSDIAVEWESNGQPENNYKTTPPVLDSDGSFFLVSRLTVDKSRWQEGNVFSCSVMHEALHNHYTQKSLSLSLGK
